Data as given in patent US20080210905A1, “ORGANIC-ELECTROLUMINESCENCE-MATERIAL-CONTAINING SOLUTION, METHOD FOR SYNTHESIZING ORGANIC ELECTROLUMINESCENCE MATERIAL, COMPOUND SYNTHESIZED BY THE METHOD, METHOD FOR FORMING THIN FILM OF ORGANIC ELECTROLUMINESCENCE MATERIAL, THIN FILM OF ORGANIC ELECTROLUMINESCENCE MATERIAL AND ORGANIC …” (Idemitsu Kosan Co., Ltd., priority 2006, published 2008).

Test: Organic electroluminescence device with spin-coated emitting layer (host and BD-1)

## c1ccc(-c2ccccc2-c2ccc3c(-c4ccccc4)c4ccccc4c(-c4ccccc4)c3c2)cc1 [compound (a)]
Device with compound as host of emitting layer, host:BD-1 20:1 (wt/wt), 50 nm, blue emission
  luminescence efficiency: 4.1 cd/A
Initial luminescence intensity 1000 cd/m^2, compound as host with BD-1
  time elapsed until the luminescent intensity decreased to half: 460 h
